Screening data, single-dose tests

Amino acid sequences for entries named in this document (tags omitted). Residues count along the entry.
UniProt Q8IDJ8, 1-583: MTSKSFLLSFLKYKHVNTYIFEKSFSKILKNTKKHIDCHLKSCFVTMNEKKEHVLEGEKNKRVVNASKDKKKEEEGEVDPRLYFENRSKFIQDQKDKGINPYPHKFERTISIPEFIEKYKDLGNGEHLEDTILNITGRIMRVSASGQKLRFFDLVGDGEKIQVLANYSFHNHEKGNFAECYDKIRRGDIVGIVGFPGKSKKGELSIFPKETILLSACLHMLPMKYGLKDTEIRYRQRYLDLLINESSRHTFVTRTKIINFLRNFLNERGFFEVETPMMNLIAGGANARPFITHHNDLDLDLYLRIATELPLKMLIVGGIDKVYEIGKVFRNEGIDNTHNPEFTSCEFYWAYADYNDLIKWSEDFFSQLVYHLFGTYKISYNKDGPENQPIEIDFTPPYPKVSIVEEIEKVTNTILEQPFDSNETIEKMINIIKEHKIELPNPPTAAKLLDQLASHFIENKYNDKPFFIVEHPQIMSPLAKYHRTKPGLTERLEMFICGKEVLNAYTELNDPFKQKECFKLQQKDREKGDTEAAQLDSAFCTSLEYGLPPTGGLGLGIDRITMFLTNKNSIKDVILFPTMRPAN
UniProt P9WFT3, whole entry: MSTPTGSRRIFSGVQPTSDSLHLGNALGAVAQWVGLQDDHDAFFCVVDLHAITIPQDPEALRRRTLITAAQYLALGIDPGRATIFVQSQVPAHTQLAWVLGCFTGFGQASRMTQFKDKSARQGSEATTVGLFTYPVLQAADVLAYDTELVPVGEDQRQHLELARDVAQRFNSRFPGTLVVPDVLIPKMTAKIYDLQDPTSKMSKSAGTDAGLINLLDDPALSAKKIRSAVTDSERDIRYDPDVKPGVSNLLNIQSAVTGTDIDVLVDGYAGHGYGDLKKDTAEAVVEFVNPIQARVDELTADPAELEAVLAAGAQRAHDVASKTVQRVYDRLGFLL
UniProt P9WPC5, whole entry: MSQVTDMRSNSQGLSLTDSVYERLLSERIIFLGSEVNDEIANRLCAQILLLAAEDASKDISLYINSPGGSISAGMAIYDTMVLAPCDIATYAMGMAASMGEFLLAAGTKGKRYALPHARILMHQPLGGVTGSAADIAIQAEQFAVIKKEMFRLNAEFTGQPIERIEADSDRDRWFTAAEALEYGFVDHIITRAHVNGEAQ
UniProt P9WPC3, whole entry partner: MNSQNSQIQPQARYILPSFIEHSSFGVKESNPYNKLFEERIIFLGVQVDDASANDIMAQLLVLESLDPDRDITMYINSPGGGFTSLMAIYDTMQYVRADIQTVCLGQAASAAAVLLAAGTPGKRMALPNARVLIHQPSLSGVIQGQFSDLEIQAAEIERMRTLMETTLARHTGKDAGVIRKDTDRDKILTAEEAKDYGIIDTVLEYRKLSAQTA
UniProt Q4DA54, 1-478: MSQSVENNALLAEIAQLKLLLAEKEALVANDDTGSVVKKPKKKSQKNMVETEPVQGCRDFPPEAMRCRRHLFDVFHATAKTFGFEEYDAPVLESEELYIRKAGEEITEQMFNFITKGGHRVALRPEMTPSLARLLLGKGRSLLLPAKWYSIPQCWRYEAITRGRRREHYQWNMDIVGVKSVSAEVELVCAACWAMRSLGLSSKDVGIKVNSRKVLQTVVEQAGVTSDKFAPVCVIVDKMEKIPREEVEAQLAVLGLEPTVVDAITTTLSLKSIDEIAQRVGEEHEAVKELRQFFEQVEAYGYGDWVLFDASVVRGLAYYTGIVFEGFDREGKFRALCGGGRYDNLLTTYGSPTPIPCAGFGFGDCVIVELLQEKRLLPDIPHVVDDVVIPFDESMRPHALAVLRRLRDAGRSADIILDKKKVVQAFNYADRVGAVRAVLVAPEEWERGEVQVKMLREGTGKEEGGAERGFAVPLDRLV

Measurements from “University of Dundee, Small-Polar-MMV Screening Library” (2021), ChEMBL document CHEMBL3988442.

A: 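Lysine-tRNA ligase, Plasmodium falciparum 3D7 (UniProt Q8IDJ8). Enzyme assay of the cytosolic lysyl-tRNA synthetase in 384-well plates, read by luminescence. Concentration: 30 µM. Direction is inferred from only a few compounds that gave an IC50; most scored high, so higher reads as stronger inhibition. Of about 69,000 compounds tested this way, about 49 (0.071%) reached 50% or more in at least one test.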
B: 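Enzyme assay of tryptophanyl-tRNA synthetase; the read-out is not stated. Target: Tryptophan-tRNA ligase, Mycobacterium tuberculosis (UniProt P9WFT3). Concentration: 10 µM. Higher most likely means stronger inhibition; the record gives no direction and few retests gave an IC50. Of about 65,000 compounds tested this way, about 64 (0.098%) reached 50% or more in at least one test.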
C: 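Protease assay of ClpP1P2, read by the AMC dye that it sets free. Target: ClpP1P2, Mycobacterium tuberculosis (UniProt P9WPC5 and UniProt P9WPC3). Compounds at 50 µM. Higher reads as stronger inhibition, judged from the few compounds that gave an IC50. Most other retested compounds had strongly negative values. Of about 69,000 compounds tested this way, about 10 (0.015%) reached 50% or more in at least one test.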
D: 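Histidine-tRNA ligase, Trypanosoma cruzi CL Brener (UniProt Q4DA54). Enzyme assay of histidyl-tRNA synthetase; the read-out is not stated. Tested at 30 µM. Direction is inferred from retests: higher values go with stronger inhibition. Size under these conditions: about 69,000 compounds, about 31 of them at 50% or above in at least one test.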

Each number is a percent effect as filed. How 0% and 100% were set is not recorded. Most values in the screen are low, and negative values occur. Compounds were drawn at random from those tested, without regard to their results. A dash means the value is not listed here; it may have been measured.

| # | SMILES | A | B | C | D |
|---|---|---|---|---|---|
| 1 | `O=C(CCN1CCCCCC1c1ccco1)N1CCOCC1` (configuration not stated) | -0.01114 | -0.374 | -1.443 | 5.759 |
| 2 | `CN(CCc1cn[nH]c1)C(=O)C1CC(=O)N(Cc2cccnc2)C1` (configuration not stated) | -0.8744 | -0.7407 | -1.331 | 4.762 |
| 3 | `Cn1ccnc1CN1C[C@H](N2CCOCC2)[C@@H]2OCCC[C@@H]21` | 2.035 | -2.327 | 0.6863 | 8.021 |
| 4 | `COCCNC(=O)c1nc2c(s1)CCCN2Cc1ccccc1` | 7.155 | -2.609 | 2.276 | 5.882 |
| 5 | `CNC(=O)C1CCN(c2ncnc3c2CCN(C(=O)C2CC2)C3)C1` (configuration not stated) | 0.02389 | -2.874 | 4.796 | 5.952 |
| 6 | `O=C(Cn1cc(C(=O)O)cn1)Nc1c(Cl)cccc1Cl` | 0.7238 | 2.85 | -7.749 | 0.8696 |
| 7 | `CCN1CCO[C@@H]2CN(S(=O)(=O)c3cccs3)CC[C@@H]2C1` | 3.397 | - | 1.303 | -6.667 |
| 8 | `CC(C)n1cc(CN2CCCN(C(=O)c3ccco3)CC2)cn1` | 3.475 | -2.741 | -18.81 | 0 |
| 9 | `CCS(=O)(=O)NCc1cc(Br)c(OC)c(OC)c1` | -1.54 | -1.251 | -11.8 | 4.082 |
| 10 | `COc1cc(N2C[C@H]3CN(C(=O)c4cccnc4)C[C@H]3C2)ncn1` | 0.01194 | -8.333 | -5.475 | 4.372 |
| 11 | `CN(CC(=O)N1CCC(COc2ccccc2)CC1)c1cnccn1` | 0.4774 | 5.999 | -56.95 | 3.79 |
| 12 | `COCC(=O)N1CCc2ncc(Cn3cncn3)n2CC1` | 2.015 | -2.502 | 3.284 | 7.843 |
| 13 | `CCC(CC)C(=O)NCc1c(C)nn(C)c1N1CCCN(C)CC1` | 1.939 | -6.11 | -3.73 | 3.097 |
| 14 | `CCCN1CCCn2c(nc(CNC(=O)c3ccsc3)cc2=O)C1` | 0.08393 | -1.904 | 4.829 | 2.674 |
| 15 | `Cn1ccc(C(=O)NCc2ccc(CN3CCCC3)cc2)cc1=O` | 1.646 | -2.756 | -14.42 | 2.286 |
| 16 | `CCc1c(C(=O)NCC(=O)OCC2CC2)cnn1-c1ccc(C)cc1` | -4.136 | 2.911 | 2.34 | -1.504 |
| 17 | `Cc1nnc2n1CCN(C(=O)c1cn(-c3ccccc3)nn1)C2` | 0.1033 | 3.828 | 2.738 | 11.06 |
| 18 | `N#Cc1cccc(CN2C[C@@H]3CN(c4ncccn4)C[C@@H]3C2)c1` | 4.745 | - | -3.997 | 4.42 |
| 19 | `O=S1(=O)CCN2C(=N1)Oc1ccc(S(=O)(=O)N3CCCC3)cc12` | 3.418 | 0.8862 | -15.93 | -2.439 |
| 20 | `COc1ccc2c(c1)C(C(=O)NCCCN1CCN(C)CC1)CC(=O)N2` (configuration not stated) | 4.951 | 3.464 | -5.937 | 3.614 |
| 21 | `Cc1ccc(N2CC[C@@H]3[C@@H]2CCN3C(=O)Cc2ccccc2)nn1` | 4.067 | - | -0.01582 | 1.105 |
| 22 | `c1cnc(N2C[C@H]3CCC[C@@H](CN4CCCC4)[C@H]3C2)nc1` | 2.294 | -0.4042 | 4.681 | 6.796 |
| 23 | `CCN1CCN(C(C)CNC(=O)Nc2nnc(C(C)C)s2)CC1` (configuration not stated) | 5.927 | -1.33 | 7.91 | 6.667 |
| 24 | `Cc1noc(CS(=O)(=O)C/C=C/c2ccccc2)n1` | 3.494 | -7.209 | -8.004 | 2.703 |
| 25 | `CC(C)NC(=O)c1nnn(-c2ccccc2)c1C1CC1` | 4.373 | 4.201 | -11.55 | 5.804 |
| 26 | `CN(C)S(=O)(=O)N1C[C@@H]2CC[C@H](C1)N(Cc1cccc(C#N)c1)C2` | 2.909 | 0.9428 | -4.983 | 7.143 |
| 27 | `CNC(=O)CS(=O)(=O)NC1CCC(C)CC1` (configuration not stated) | 0.6051 | 0.432 | 18.1 | 8.911 |
| 28 | `CNC(=O)c1sc2ccccc2c1CC1CCCN1Cc1cnc(C)s1` (configuration not stated) | -0.4695 | -2.626 | 18 | 0.7576 |
| 29 | `COCc1cncc2c1CCN(Cc1cnn(C)c1)C2` | 1.498 | 4.257 | 6.1 | 3.96 |
| 30 | `CC(C)C(C(=O)N1CCN(Cc2cscn2)CC1)n1cncn1` (configuration not stated) | -1.628 | -1.356 | -24.33 | 3.139 |
| 31 | `Cc1nc(CN2CCc3nn(C)c(=O)cc3C2)oc1C` | 0.4366 | -1.237 | -17.76 | 8.671 |
| 32 | `CN(C)S(=O)(=O)N1CCC(c2nnc(C(F)(F)F)o2)CC1` | 0.5886 | -3.391 | -12.46 | 4.39 |
| 33 | `O=C1CO[C@@H]2CN(Cc3cccnc3)C[C@H]2N1Cc1ccncc1` | 9.668 | 1.918 | -3.335 | 4.132 |
| 34 | `CCN1CCN(S(=O)(=O)c2cc(C)c(C)cc2Br)CC1` | 2.286 | 3.584 | -0.7397 | 3.509 |
| 35 | `CCN(Cc1ccccn1)C1CCN(c2ccccc2)C1=O` (configuration not stated) | 0.7156 | -3.783 | 0.3733 | 10.5 |
| 36 | `CCNC(=O)N1CCC(c2ccccc2)C1` (configuration not stated) | 2.082 | 0.5869 | -3.191 | 8.543 |
| 37 | `O=c1ccc(-n2cccn2)nn1CCNS(=O)(=O)c1ccc(F)c(Cl)c1` | 4.335 | 2.964 | -0.006811 | 2.062 |
| 38 | `O=C(O)c1c(-c2ccncc2)ncc2c1CCN(Cc1ccco1)C2` | 2.864 | - | -4.305 | 2.222 |
| 39 | `CCc1nnsc1C(=O)N1CCN(CC(O)C(C)(C)C)CC1` (configuration not stated) | 11.28 | -3.072 | -2.017 | 5.82 |
| 40 | `CCC(=O)N1CCC(c2ncc3c(n2)CCNC3)CC1` | 1.985 | - | -1.627 | 8.24 |
| 41 | `COc1ccc2c(c1OC)Cc1c-2nc(N)c(C#N)c1C1CCOC1` (configuration not stated) | 5.003 | 2.601 | -280.5 | 7.463 |
| 42 | `CCn1nc(C)c(C(=O)Nc2ccc3c(c2)C(C)(C)C(=O)N3C)c1C` | -3.305 | -3.525 | 0.2449 | 2.484 |
| 43 | `CC(=O)Nc1nc(C2CCN(C(=O)c3ccncc3)CC2)cs1` | 5.382 | - | 10.71 | 14.44 |
| 44 | `CC(=O)c1c(F)cccc1NCC(O)C1CC1` (configuration not stated) | 2.518 | 2.795 | -5.704 | 6.098 |
| 45 | `Cc1ncc2c(n1)CN(Cc1nc(C)c(C)o1)CC2` | 4.681 | 7.198 | -20 | 9.202 |
| 46 | `CC(c1cccc(-c2ncccc2C#N)c1)N(C)C` (configuration not stated) | 2.105 | 5.243 | 6.275 | 8.911 |